Test results: patent publication US9193673B2, “Derivatives of mesalazine, process of their preparation and their use in the treatment of intestinal inflammatory diseases” (SOFAR SPA, priority 2010, dated 2015)

Experiments:
[1] = Stability in rat plasma (hydrolysis by plasma esterases); type: in vitro ADME
Experimental: (§1) Such study is conducted with the aim of evaluating possible hydrolysis of the compound (IV) by the plasma esterases. The percentage of hydrolysis of the compound (IV) is compared to that of known reference standards.

[2] = Stability in human plasma (hydrolysis by plasma esterases); type: in vitro ADME
Experimental: as §1

CCN(CC)CC(=O)Nc1c(C)cccc1C [Lidocaine, reference compound]
% Residue at 60 min [1]: 93.4 ± 4.9% | % Residue at 60 min [2]: 105.0 ± 12.1%
